# The supplement of paper PMC10403144
# Some of the results follow.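 How the source made its calls: active = mitochondrial OCR inhibition above 30% at 1 uM; inactive = 30% or less.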 Many values rest on one well or one pass, so single values are uncertain.
# System: Toxoplasma gondii RH tachyzoites
# Experiment: inhibition of mitochondrial O2 consumption rate (% inhibition (relative to pre-injection OCR and atovaquone/antimycin A control)); higher = stronger ETC inhibition
# Settings: 1 µM; injection port (sequential injection order): C
row,SMILES,inhibition of mitochondrial O2 consumption rate
1,C[C@H](c1ccc2c(c1)CCCC2)N(C)c1ncc2c(N)nc(N)nc2n1,inactive: -3.96
2,COc1cc(Br)cc2cc(C(=O)Nc3cccc(C(F)(F)F)c3)c(=O)oc12,inactive: -22.1
3,CCCCc1ccc(C(=O)Nc2nccc3ccccc23)nc1,inactive: -5.27
4,CCn1ncc2c(NC3CCOCC3)c(CNC(=O)c3ccnn3C)c(C)nc21,inactive: -4.14
5,Cc1ccccc1CN1CCC(O)(c2ccc(Cl)c(C(F)(F)F)c2)CC1,inactive: -25.7
6,COc1ccc(-c2nnc3ccc(-c4cccc(C(C)C)c4)cn23)cc1OC,inactive: -8.29
7,CC(C)(C)OC(=O)N1CCN(c2cc(-c3ccc(Oc4ccccc4)cc3)n[nH]2)CC1,inactive: -10.5
8,O=C1[C@@H](Oc2ccccc2)[C@@H](c2ccc(Cl)cc2)N1CCn1cnc2c(NCc3ccccc3)ncnc21,inactive: -9.29
9,O=C(OCc1ccccc1)N1CCC(c2cc(-c3ccncc3)c(-c3ccc(F)cc3)[nH]2)CC1,inactive: -15.5
10,COc1ccc(-c2cnc3cnc(-c4cccc(OC(C)C)c4)cn23)cc1,inactive: -10.1
11,CCc1nc2ccc(Cl)cn2c1C(=O)NCc1ccc(N2CCC(c3ccc(OC(F)(F)F)cc3)CC2)cc1,inactive: -8.84

# Given with tabs: part of the list above.
row	SMILES	inhibition of mitochondrial O2 consumption rate
4	CCn1ncc2c(NC3CCOCC3)c(CNC(=O)c3ccnn3C)c(C)nc21	inactive: -4.14
10	COc1ccc(-c2cnc3cnc(-c4cccc(OC(C)C)c4)cn23)cc1	inactive: -10.1
